These are yes or no findings as the source states them, for the method shown. Some binding calls cover weakened binding; strength is not graded here. Where a sequence is shown, tags or fusion partners need not be part of it.
Biological target: T1, AtTPL (TOPLESS), GAL4 binding domain fusion (Arabidopsis thaliana) (UniProt Q94AI7)
T1 sequence: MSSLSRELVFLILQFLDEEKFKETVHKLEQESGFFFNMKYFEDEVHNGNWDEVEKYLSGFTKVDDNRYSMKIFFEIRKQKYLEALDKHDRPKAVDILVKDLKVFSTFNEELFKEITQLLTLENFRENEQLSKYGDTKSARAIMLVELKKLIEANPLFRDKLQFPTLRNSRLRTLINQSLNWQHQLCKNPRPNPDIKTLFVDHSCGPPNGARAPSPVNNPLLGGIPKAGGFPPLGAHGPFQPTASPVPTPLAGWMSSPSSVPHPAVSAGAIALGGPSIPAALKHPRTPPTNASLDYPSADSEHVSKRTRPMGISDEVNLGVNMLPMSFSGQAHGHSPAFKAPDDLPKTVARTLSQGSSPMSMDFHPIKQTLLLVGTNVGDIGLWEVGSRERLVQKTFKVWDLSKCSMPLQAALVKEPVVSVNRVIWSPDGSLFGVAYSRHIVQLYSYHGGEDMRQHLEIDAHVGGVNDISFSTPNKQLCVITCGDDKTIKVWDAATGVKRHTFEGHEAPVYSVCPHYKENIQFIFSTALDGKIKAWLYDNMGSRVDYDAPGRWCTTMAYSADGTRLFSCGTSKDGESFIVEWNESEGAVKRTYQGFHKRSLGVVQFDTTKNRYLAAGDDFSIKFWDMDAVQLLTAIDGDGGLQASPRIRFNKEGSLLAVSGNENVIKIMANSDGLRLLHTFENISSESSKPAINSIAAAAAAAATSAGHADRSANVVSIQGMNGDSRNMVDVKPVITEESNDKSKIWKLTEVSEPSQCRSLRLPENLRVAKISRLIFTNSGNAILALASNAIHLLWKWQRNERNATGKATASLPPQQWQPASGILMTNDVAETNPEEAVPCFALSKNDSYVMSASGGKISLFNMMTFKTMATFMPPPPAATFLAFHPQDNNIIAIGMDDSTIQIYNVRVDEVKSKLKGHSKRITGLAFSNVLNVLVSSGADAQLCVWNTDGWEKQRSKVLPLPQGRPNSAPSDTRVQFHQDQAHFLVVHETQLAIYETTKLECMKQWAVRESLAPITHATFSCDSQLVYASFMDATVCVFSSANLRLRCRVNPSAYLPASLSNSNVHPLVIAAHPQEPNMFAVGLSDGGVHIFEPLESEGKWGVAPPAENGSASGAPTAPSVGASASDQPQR
Assay: two-hybrid

By UniProt entry, the sequences of proteins in these tests, tags left out.
UniProt Q9C5I3: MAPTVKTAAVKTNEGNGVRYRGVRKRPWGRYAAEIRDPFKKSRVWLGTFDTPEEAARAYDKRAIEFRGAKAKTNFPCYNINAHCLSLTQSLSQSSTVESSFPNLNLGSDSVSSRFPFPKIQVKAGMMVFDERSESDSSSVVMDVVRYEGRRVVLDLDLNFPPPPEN
UniProt O80339: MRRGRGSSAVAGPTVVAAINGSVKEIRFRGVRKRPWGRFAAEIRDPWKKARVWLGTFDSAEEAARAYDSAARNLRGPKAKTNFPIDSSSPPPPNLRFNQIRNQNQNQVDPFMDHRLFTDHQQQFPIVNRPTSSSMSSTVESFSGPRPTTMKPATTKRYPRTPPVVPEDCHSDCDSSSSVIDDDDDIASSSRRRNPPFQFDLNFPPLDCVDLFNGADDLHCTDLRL
UniProt O80340: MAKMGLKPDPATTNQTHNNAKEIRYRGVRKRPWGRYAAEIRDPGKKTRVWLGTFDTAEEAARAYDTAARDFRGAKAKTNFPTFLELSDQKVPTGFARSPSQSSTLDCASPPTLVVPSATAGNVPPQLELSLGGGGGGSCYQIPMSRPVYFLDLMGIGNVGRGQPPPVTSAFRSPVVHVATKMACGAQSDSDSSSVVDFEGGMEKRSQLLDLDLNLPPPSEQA

Row | Substance | binding
1 | ERF11, GAL4 activation domain fusion (from UniProt Q9C5I3 1-166) | binds
2 | ERF3, GAL4 activation domain fusion (from UniProt O80339 1-225) | binds
3 | ERF4, GAL4 activation domain fusion (from UniProt O80340 1-222) | binds
